# Results are given in words; binding and its absence hold for the method and conditions named. Binding seen in cells or lysates may run through a third protein. A result given as binding can be weak or reduced; the word gives no strength.
# Target: T1, Forkhead box A2 (FoxA2) (rat (endogenous in SD rat neural stem cells)) (UniProt P32182)
# T1 sequence: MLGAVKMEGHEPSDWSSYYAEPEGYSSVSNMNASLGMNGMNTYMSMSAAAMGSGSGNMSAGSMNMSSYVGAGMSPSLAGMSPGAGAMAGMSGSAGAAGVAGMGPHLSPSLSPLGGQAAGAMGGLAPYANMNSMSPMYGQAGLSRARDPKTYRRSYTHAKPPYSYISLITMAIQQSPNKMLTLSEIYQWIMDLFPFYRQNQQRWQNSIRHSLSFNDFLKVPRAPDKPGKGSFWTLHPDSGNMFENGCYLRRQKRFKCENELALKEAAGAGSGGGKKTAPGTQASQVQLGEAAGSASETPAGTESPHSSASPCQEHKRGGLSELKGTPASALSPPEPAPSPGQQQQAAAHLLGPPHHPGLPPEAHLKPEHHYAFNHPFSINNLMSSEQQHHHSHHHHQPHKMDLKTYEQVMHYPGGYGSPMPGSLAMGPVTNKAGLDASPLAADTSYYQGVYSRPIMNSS
# Assay: co-IP; Pierce Crosslink Magnetic IP/Co-IP Kit; mouse anti-FoxA2 antibody (5 μg per sample) crosslinked to protein A/G magnetic beads; cell protein of NSCs differentiated 5 days, control or PTE (30 μg/ml); TET1 detected by western blot
substance,measurement,value
Ten-eleven translocation 1 (TET1),binding,binds

# Source: publication PMC7189310
